Source: publication PMC10617769, “Dietary potassium stimulates Ppp1Ca-Ppp1r1a dephosphorylation of kidney NaCl cotransporter and reduces blood pressure” (The Journal of Clinical Investigation, 2023)
Results are given in words; binding and its absence hold for the method and conditions named. Where a sequence is shown, tags or fusion partners need not be part of it.

Target: T1, GST fusion protein of the cytoplasmic amino terminus of rat NCC (amino acids 1-133) (rat) (UniProt P55018)
T1 sequence: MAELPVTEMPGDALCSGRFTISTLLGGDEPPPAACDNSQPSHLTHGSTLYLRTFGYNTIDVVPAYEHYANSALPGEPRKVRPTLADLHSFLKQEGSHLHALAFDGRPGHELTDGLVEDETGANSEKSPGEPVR
Assay: pull-down; GST-(N) NCC or GST alone on glutathione-agarose beads with 2–10 μg recombinant phosphatase; 12- to 18-hour incubation in PBS with 0.5 mM TCEP at 4°C; bound protein detected by Western blotting; both purified

recombinant PP2A (enzyme)
binding: no binding (tested: 2–10 μg)
